The data set deals with formalin-induced nociceptive behavior. In words: Formalin test (spontaneous jerking of the injected hindpaw). Conditions: formalin test dose-response. Type of data set: in vivo, rat. The method, then: All animal experiments were carried out in accordance with the “Guide for the Care and Use of Laboratory Animals” as adopted by the Bogomoletz Institute of Physiology Clinic of Animal Care and Use. The formalin test experiments were performed on 21-day-old male Wistar rats, weighing 40 ± 5 g according to the method described previously.[49],[50] Briefly, animal was acclimated to an acrylic observation chamber for at least 1 h before the injection of formalin (50 µl of 0.5% solution in 0.9% saline) into the dorsal surface of the right hindpaw. Immediately after the injection, each animal was returned to the observation chamber and its behavioral characteristics were recorded for 45 min. We noticed consistently observed type of response: spontaneous jerking of the injected paw. The number of jerks was measured for each 1-min block, using self-developed computer software.
Figure 8. Effects of subcutaneous Ap4A analogs on pain responses induced by intraplantar (right hindpaw) formalin injection. Rats were subcutaneously injected with formalin solution alone (0.5%, 50 µl, control) or coinjected with the formalin solution and solutions with AppCH2ppA (1 µM–100 µM, 100 µl) or AppNHppA (0.1 µM–100 µM, 100 µl). Age-matched control animals were injected with saline. (a) Time course of the effects of subcutaneous AppCH2ppA (left) and AppNHppA (right) on the number of the spontaneous jerkings of the injected paw. (b) Bar graphs of the effects of AppCH2ppA (b, c) and AppNHppA (d, e) on the integral number of spontaneous jerkings. Measurements were made during the acute phase (0–6 min) and tonic phase (7–45 min) of the formalin response. (f) Dose-response curves for AppCH2ppA (left) and AppNHppA (right) during tonic and acute phases. For each concentration 6–7 rats were used.

The values below come from article PMC4955970, “Stable, synthetic analogs of diadenosine tetraphosphate inhibit rat and human P2X3 receptors and inflammatory pain” (Molecular Pain, 2016).

In the case of `Nc1ncnc2c1ncn2[C@@H]1O[C@H](COP(=O)(O)OP(=O)(O)CP(=O)(O)OP(=O)(O)OC[C@H]2O[C@@H](n3cnc4c(N)ncnc43)C(O)C2O)C(O)C1O` (stereo partly drawn) [AppCH2ppA, diadenosine 5′,5′′′-P^1,P^4-(β,γ-methylene)tetraphosphate], the “kH, acute phase” value amounted to 0.5 ± 0.14 and the “kH, tonic phase” value is reported as 1.15 ± 0.17. For the molecule `Nc1ncnc2c1ncn2[C@@H]1O[C@H](COP(=O)(O)OP(=O)(O)NP(=O)(O)OP(=O)(O)OC[C@H]2O[C@@H](n3cnc4c(N)ncnc43)[C@H](O)[C@@H]2O)[C@@H](O)[C@H]1O` [AppNHppA, diadenosine 5′,5′′′-P^1,P^4-(β,γ-imido)tetraphosphate], the “kH, tonic phase” value is reported as 0.82 ± 0.1.
